No constants are given. Whether binding was seen depends on the method and setting. Some binding calls cover weakened binding; strength is not graded here.
Molecular target: T1, human MEFLIN protein (human, UniProt O14498 19-428, limits assumed)
T1 construct: In the Western blot the protein and its fragments carried a C-terminal G196 tag and His tag and were expressed in HEK293 cells; also called hMEFLIN; ISLR
T1 sequence (looked up): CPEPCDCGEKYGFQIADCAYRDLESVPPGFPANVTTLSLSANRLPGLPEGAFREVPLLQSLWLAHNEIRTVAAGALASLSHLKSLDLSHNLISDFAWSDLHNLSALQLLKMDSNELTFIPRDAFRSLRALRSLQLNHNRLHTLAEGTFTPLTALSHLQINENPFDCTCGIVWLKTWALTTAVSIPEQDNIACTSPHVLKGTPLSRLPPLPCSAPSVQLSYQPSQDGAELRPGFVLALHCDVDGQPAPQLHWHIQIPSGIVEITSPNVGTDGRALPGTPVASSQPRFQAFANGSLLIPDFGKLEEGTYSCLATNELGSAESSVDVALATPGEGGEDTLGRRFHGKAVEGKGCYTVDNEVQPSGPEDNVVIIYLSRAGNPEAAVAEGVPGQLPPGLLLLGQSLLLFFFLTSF
Test: Western blotting on tagged human MEFLIN fragments
Procedure: The human embryonic kidney (HEK293) cell line was allowed to transiently express pRP-CMV vector having an insert of DNA encoding the human MEFLIN protein or a fragment thereof by lipofection, and a cell lysate was prepared. […] SDS-PAGE was performed using the cell lysate, and the electrophoresed protein was transferred to a PVDF membrane. The PVDF membrane was reacted at ordinary temperature for 1 hour using 5% skimmed milk/PBS. The primary antibody used was a culture supernatant of each hybridoma clone diluted 50-fold with PBS. For a positive subject, an anti-G196 antibody was used as a primary antibody. The PVDF membrane was reacted overnight at 4° C. in the presence of the primary antibody. Then, the PVDF membrane was washed with 0.05% Tween/PBS. The secondary antibody used was an anti-rat or anti-mouse antibody-horseradish peroxidase (HRP) conjugate. The secondary antibody was diluted 1000-fold with PBS and reacted with the PVDF membrane at ordinary temperature for 45 minutes. After washing with 0.05% Tween/PBS, the HRP label on the antibody was allowed to emit light using ECL (GE Healthcare Japan Corp.), and an image was captured into a computer using a CCD imager (Las 4000, GE Healthcare Japan Corp.).

binding: binds
B1: 16-5 antibody (antibody, V domains shown)
VH: VKLQQSGGGLVQPGGSRKLSCAASGFTFSDYGMAWVRQAPGKGPEWVAFISSLAYTVYYADTVTGRFTISRENAKNTLFLEMSSLRSEDTAMYYCARFPVEAMDYWGQGTSVTVSS
VL: DIVMTQTPLSLPVSLGDQASISCRSSQSLVHSNGNTYLHWYLQKPGQSPKLLIYKVSNRFSGVPDRFSGSGSGTDFTLKISRVEAEDLGVYFCSQSTHFLTFGSGTKLEIK

Reference: patent publication US20230084099A1 (NATIONAL UNIVERSITY CORPORATION TOKAI NATIONAL HIGHER …, published 2023)
